Measured values taken from paper PMC12548414.
The whole screen tested about 1,600 compounds, of which about 20 (1%) showed an effect of 50% or more. This is one part of the list.

system: T1, E. coli pLC1021 (luc-trpAt trans-translation reporter); design: species or system Escherichia coli pLC1021; luc-trpAt non-stop luciferase reporter; luminescence rises when trans-translation is inhibited; normalized to KKL-35 and DMSO; conditions: reporter signal, KKL-35 = 100%; rise means trans-translation inhibition; 2 h, 20 µM
T1 construct: pLC1021 luc-trpAt reporter strain
Method in brief: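 Cells carrying the non-stop luc-trpAt reporter were exposed to 20 µM compound for 2 h at room temperature, then Bright-Glo was added and luminescence read at 560 nm after 10 min. Signals were normalised per plate to DMSO and 20 µM KKL-35 wells. Hits: activity one SD above the median; ≥2 biological repeats averaged.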

Row | Structure (SMILES) | % activation
1 | CC(C)(C)c1ccc(OCC(=O)N2CCCC(c3cc4ncccc4cn3)C2)cc1 (centres unmarked) [KKL-0502] | 0%
2 | COc1cc(CNCc2ccccn2)ccc1OCc1ccc(Cl)cc1Cl [KKL-1663] | 0%
3 | CC(C)(C)C(Cn1ccnc1)NCc1c[nH]nc1-c1ccc(-c2ccccc2)cc1 (centres unmarked) [KKL-0347] | 0%
4 | CC(C)COc1ccc(-c2nn(-c3ccccc3)cc2C(=O)Nc2nccs2)cc1 [KKL-0403] | 5%
5 | COc1ccc(Nc2nc(NC3CCNC3)nc3cc[nH]c(=O)c23)cc1CC(=O)c1ccccc1 (centres unmarked) [KKL-1883] | 335%
6 | COc1cccc(Nc2c3c(nc4c(-c5ccccc5)c(C)nn24)CCC3)c1 [KKL-1020] | 4%
7 | COc1ccc(-c2nsc(SCC(=O)N3CCCC3)n2)cc1 [KKL-1799] | 1%
8 | Cc1cc(OCCCCn2ccnc2)ccc1C(C)C [KKL-0423] | 8%
9 | Cc1cccc(C)c1OCC(=O)NN=Cc1ccc(O)c([N+](=O)[O-])c1 [KKL-1471] | 8%
10 | Cc1ccc2nc(C(F)(F)F)c(C(=O)NCc3cccs3)n2c1 [KKL-1862] | 0%
11 | Oc1ccccc1-c1n[nH]c(/C=C/c2ccc(Cl)cc2)n1 [KKL-1554] | 0%
12 | Cc1sc(NC(=O)c2ccccc2OCCN(C)C)nc1-c1ccc(F)cc1 [KKL-0472] | 0%
13 | COc1ccccc1C1(O)CCN(Cc2[nH]c3ccc(F)cc3c2C)CC1 [KKL-0469] | 4%
14 | CCOC(=O)CCc1c(C)c(C#N)c2nc3ccccc3n2c1O [KKL-1420] | 0%
15 | Cc1ccc(C(=O)N2CCN(c3ccc(NC(=O)COc4c(C)cc(C)cc4Br)cc3)CC2)cc1 [KKL-0398] | 3%
16 | CC(=NNC1=NC(=O)C(Cc2ccc(F)cc2)S1)c1ccc(Cl)cc1 (centres unmarked) [KKL-0416] | 10%
17 | O=C(O)c1ccc(NC(=S)NC(=O)c2ccc(-c3ccccc3)cc2)cc1 [KKL-1292] | 0%
18 | CC(=O)N1CCc2cc3nc(C)cc(C)c3cc21 [KKL-1780] | 0%
19 | Oc1cccc2ccc(/C=C/c3c(F)cccc3Cl)nc12 [KKL-1108] | 26%
20 | Nc1ccc(C(O)CNCCc2ccccc2)cc1O (centres unmarked) [KKL-1885] | 3%
21 | COC(=O)[C@@H]1Cc2c([nH]c3ccccc23)[C@H]2C[C@H](NCc3cccnc3)C[C@@H](c3ccc(OC(F)(F)F)cc3)N21 [KKL-1610] | 0%

Row | Structure (SMILES) | % activation
22 | CCOC(=O)CSc1nc2c(c(-c3ccc(C)o3)c1C#N)CCCC2 [KKL-1085] | 0%
23 | Cc1ccccc1OC(=O)c1sc2ccccc2c1Cl [KKL-0721] | 0%
24 | CC1CC(C)CN(C(=O)COC(=O)c2cc3ccccc3cc2O)C1 (centres unmarked) [KKL-0842] | 0%
25 | CCC(=Nc1ccccc1O)C1=C(O)CC(c2ccccc2)CC1=O (centres unmarked) [KKL-1076] | 1%
26 | FC(F)(F)c1nnc2ccc(Sc3nnc(-c4ccco4)o3)nn12 [KKL-1754] | 1%
27 | O=C(Nc1ccc(Oc2ccccc2)cc1)Nc1cccc([N+](=O)[O-])c1 [KKL-1338] | 0%
28 | CSc1ccc(C(=O)C2CCCN(C(=O)c3ccc4c(c3)no[n+]4[O-])C2)cc1 (centres unmarked) [KKL-0493] | 3%
29 | CCc1ccccc1OCCCON1C(=N)N=C(N)NC1(C)C [KKL-1700] | 3%
30 | Cc1cccc(-c2cccc(NC(=O)C3CCCN(Cc4cccn4-c4ncccn4)C3)c2)c1 (centres unmarked) [KKL-1147] | 0%
31 | CCOC(=O)c1ccc(NC(=O)/C=C/c2ccc([N+](=O)[O-])s2)cc1 [KKL-0727] | 0%
32 | CC(C)c1ccc(NC2CCCN(C(=O)c3ccc4c(c3)no[n+]4[O-])C2)cc1 (centres unmarked) [KKL-1166] | 1%
33 | CCc1cc2c(=O)c(-c3ccc(OC)cc3)coc2cc1OCC(=O)OC [KKL-0909] | 0%
34 | O=C(OCC(=O)c1c[nH]c2ccccc12)c1ccc([N+](=O)[O-])s1 [KKL-0815] | 0%
35 | O=C(CNC(=O)/C(=C\c1ccccc1)NC(=O)c1ccc(Br)cc1)OCc1ccccc1 [KKL-0977] | 0%
36 | CCCN1C(=O)c2cccc3cc([N+](=O)[O-])cc(c23)C1=O [KKL-1354] | 0%
37 | O=C(Cc1ccc(F)cc1)Nc1nc(-c2ccccn2)cs1 [KKL-1688] | 13%
38 | O=C(c1cc2ccccc2o1)N1CCN(Cc2ccc3c(c2)OCO3)CC1 [KKL-1696] | 0%
39 | Cc1ccc(C)c(SCC(=O)OC/C(O)=C(/C#N)c2nc3ccccc3[nH]2)c1 [KKL-0827] | 4%
40 | Cc1ccc(NC2CCCN(C(=O)c3ccc4c(c3)no[n+]4[O-])C2)cc1C (centres unmarked) [KKL-0482] | 3%
41 | Cc1ccc(CN(CCCn2ccnc2)Cc2oc3ccccc3c2C)s1 [KKL-0543] | 3%
42 | CC(C)=CCCC1(C)C=Cc2c(c(C)cc3c2[nH]c2ccccc23)O1 (centres unmarked) [KKL-1591] | 0%

Row | Structure (SMILES) | % activation
43 | OC1(c2ccccc2)CCN(Cc2ccc(N3CCCC3)c(F)c2)C1 (centres unmarked) [KKL-0333] | 0%
44 | Fc1ccc(CN(CCCn2ccnc2)Cc2ccccc2F)cc1F [KKL-0708] | 7%
45 | O=C(C=Cc1cccs1)N1CCN(Cc2ccc(Br)s2)CC1 [KKL-1861] | 0%
46 | Cc1cc(C)n(-c2nc(SCCN(C)C)c3c4c(sc3n2)CCCC4)n1 [KKL-1018] | 7%
47 | NS(=O)(=O)c1ccc(Nc2cnc3ccccc3n2)cc1 [KKL-1678] | 4%
48 | COC(=O)c1ccc(N2C(=O)CC(N(CCc3ccccc3)C(S)=Nc3ccccc3)C2=O)cc1 (centres unmarked) [KKL-1398] | 3%
49 | CC(C)(C)c1ccc(C(=O)NC(=S)Nc2ccc(F)cc2)cc1Br [KKL-1435] | 13%
50 | O=C(C=Cc1cccs1)N1CCN(Cc2ccc3c(c2)OCO3)CC1 [KKL-1759] | 0%
51 | Cc1c(OC(=O)c2cccc([N+](=O)[O-])c2)ccc2c1CCCC2 [KKL-1561] | 1%
52 | O=C(CCC1CCCCC1)Nc1cccc(-c2nnc(-c3ccco3)o2)c1 [KKL-1701] | 3%
53 | O=C(Nc1nc(-c2ccccn2)cs1)C12CC3CC(CC(O)(C3)C1)C2 [KKL-0384] | 0%
54 | CC(C)(C)C(=O)CC1(O)Oc2ccccc2N=C1C=C(O)C(C)(C)C (centres unmarked) [KKL-1740] | 6%
55 | C=CCc1cc(Cl)ccc1OCCCCn1ccnc1 [KKL-1370] | 0%
56 | CC(C)n1ncc2c(C(=O)NCC(c3cccs3)N3CCOCC3)cc(-c3ccccc3)nc21 (centres unmarked) [KKL-1767] | 0%
57 | CCCS(=O)(=O)c1nnnn1-c1cccc(OC)c1 [KKL-0294] | 0%
58 | CCOc1ccc(C(=O)Nc2ccc(N3CCN(C(=O)c4cccs4)CC3)c(Cl)c2)cc1Br [KKL-1291] | 1%
59 | CCCOC(=O)CSc1nnc(-c2cc(OC)c(OC)c(OC)c2)o1 [KKL-1095] | 0%
60 | Cc1ccc2c(c1)C(O)CC1(CCN(CC(O)c3ccc4c(c3)CCCC4)CC1)O2 (centres unmarked) [KKL-0461] | 0%
61 | Cc1ccc(-c2cc(C(=O)N3CCCC(N4CCN(c5ccccc5C)CC4)C3)[nH]n2)s1 (centres unmarked) [KKL-0485] | 0%
62 | COC(=O)COc1ccc2c(-c3ccc(OC)cc3)cc(=O)oc2c1 [KKL-0407] | 0%
63 | COc1cccc(CNCc2cn(-c3ccc(C)cc3)nc2-c2ccc(F)cc2)c1OC [KKL-0501] | 0%

Of the compounds above, these contain a cyano group.
Row | Structure (SMILES) | % activation
14 | CCOC(=O)CCc1c(C)c(C#N)c2nc3ccccc3n2c1O [KKL-1420] | 0%
22 | CCOC(=O)CSc1nc2c(c(-c3ccc(C)o3)c1C#N)CCCC2 [KKL-1085] | 0%
39 | Cc1ccc(C)c(SCC(=O)OC/C(O)=C(/C#N)c2nc3ccccc3[nH]2)c1 [KKL-0827] | 4%

Nos. 45 to 46, quoted:
Row | Structure (SMILES) | % activation
45 | O=C(C=Cc1cccs1)N1CCN(Cc2ccc(Br)s2)CC1 [KKL-1861] | 0%
46 | Cc1cc(C)n(-c2nc(SCCN(C)C)c3c4c(sc3n2)CCCC4)n1 [KKL-1018] | 7%

Later entries:

Row | Structure (SMILES) | % activation
64 | CC(=O)N[C@H]1C(O[C@@H]2OC(CC(O)[C@H]3O[C@@H](n4ccc(=O)[nH]c4=O)[C@H](O)[C@@H]3O)[C@H](O)[C@H](O)[C@H]2NC(=O)/C=C/CCCCCCCCCCC(C)C)O[C@H](CO)[C@@H](O)[C@@H]1O (some centres unmarked) [KKL-1603] | 0%
65 | Cc1nc2ccccc2n1CC(O)COc1ccc(C2C=CCC2)cc1 (centres unmarked) [KKL-0747] | 0%
66 | O=C(CSc1ccc(Br)cc1)Nc1ccccc1F [KKL-1459] | 0%
67 | CCCOc1ccc(C2Oc3ccc(Br)cc3C=C2[N+](=O)[O-])cc1OC (centres unmarked) [KKL-1434] | 2%
68 | COc1ccc(C)cc1CN1CCC(c2cc3ncccc3cn2)CC1 [KKL-0470] | 0%
69 | O=C(c1ccc(Cl)cc1)c1ccc(CSc2nnc(-c3ccccc3)o2)o1 [KKL-1212] | 0%
70 | Cc1nc(C2CCNCC2)ncc1-c1nc(N2CCCCCC2)ncc1-c1ccc(F)cc1 [KKL-0335] | 0%
71 | CCN(CC)c1ccc(NC(S)=NCc2ccc(Cl)cc2)cc1 [KKL-1543] | 2%
72 | O=C(/C=C/c1ccc(Cl)c([N+](=O)[O-])c1)c1cccnc1 [KKL-0942] | 0%
73 | Cc1ccc2nc(O)c(CNc3ccc(-c4nc5cc(C)ccc5[nH]4)cc3)cc2c1 [KKL-0532] | 0%
74 | CCc1ccc(CN2CCC3(CC2)OCCc2sccc23)s1 [KKL-1775] | 2%
75 | COc1ccc(OC)c(NC(=O)Nc2ccc(Cl)c(C(F)(F)F)c2)c1 [KKL-1544] | 0%
76 | OC(CN1CCC(O)(c2ccc(F)cc2)CC1)c1ccc(-c2ccccc2)cc1 (centres unmarked) [KKL-0933] | 0%
77 | COC(=O)CSc1ccc2c(N)c(C(=O)OC)sc2c1 [KKL-1512] | 0%
78 | Cc1ccc2nc(/N=C(\N)NC(=O)NC3CCCCC3)nc(C)c2c1 [KKL-1002] | 0%
79 | COc1ccc(Cc2nn3c(-c4ccccc4)nnc3s2)cc1 [KKL-0734] | 15%
80 | CCOc1cc(CNCc2ccccc2OCc2ccccc2)cc(Cl)c1OCC [KKL-1066] | 14%
81 | CCC(C)NC(=O)c1c(N)n(N=Cc2ccccn2)c2nc3ccccc3nc12 (centres unmarked) [KKL-0890] | 0%
82 | COc1ccc(-c2nc(CN3CCC4(C=Cc5ccccc54)CC3)c(C)o2)c(F)c1 [KKL-0646] | 2%
83 | c1csc(-c2nnc(Sc3ccnc(N4CCN(c5ccncc5)CC4)n3)n2CCCN2CCOCC2)c1 [KKL-1798] | 0%
